This is an account of results in paper doi:10.1101/2022.03.24.485634.

This assay addresses mt-ELP3-Flag (ELP3/Kat9 203 spliced isoform, mitochondrial ELP3) (human). Put plainly: co-IP.

No constants are given. Whether binding was seen depends on the method and setting. Binding seen in cells or lysates may run through a third protein. Binding calls can cover weak binding; strength is not graded here. Where a sequence is shown, tags or fusion partners need not be part of it.

B1: GTPBP3 (NM_001128855) Human Tagged ORF Clone, expressed from pCMV6 (protein, UniProt Q969Y2-3 21-471)
chain: TRRSSGAPAPGSGATIFALSSGQGRCGIAVIRTSGPASGHALRILTAPRDLPLARHASLRLLSDPRSGEPLDRALVLWFPGPQSFTGEDCVEFHVHGGPAVVSGVLQALGSVPGLRPAEAGEFTRRAFANGKLNLTEVEGLADLIHAETEAQRRQALRQLDGELGHLCRGWAETLTKALAHVEAYIDFGEDDNLEEGVLEQADIEVRALQVALGAHLRDARRGQRLRSGVHVVVTGPPNAGKSSLVNLLSRKPVSIVSPEPGTTRDVLETPVDLAGFPVLLSDTAGLREGVGPVEQEGVRRARESCNFLATVVASVGAQSPSDSSQRLLLVLNKSDLLSPEGPGPGPDLPPHLLLSCLTGEGLDGLLEALRKELAAVCGDPSTDPPLLTRARHQHHLQGCLDALGHYKQSKDLALAAEALRVARGHLTRLTGGGGTEEILDIIFQDFCVGK
As to B1, the binding entry is given as “binds”.
